Values from PubChem BioAssay AID504793 (Drosophila RNAi Screening Center, 2011).
The screen tested about 23,000 reagents; below is a random part of those with a known target gene and a result. Of all reagents, 62 (0.27%) were called active. 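Calls come from follow-up tests whose scores are not deposited, so confirmed genes may have low counts here; counts are not normalised per plate.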 Raw values are not corrected between plates. A plus sign joins genes that one reagent is predicted to hit.

Aim: 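Knock-downs allowing continued mitosis even though DNA is damaged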 (primary screen)
Cell system: Drosophila S2R+ cells
Knock-down reagent: long dsRNA against Drosophila genes, about 0.25 µg dsRNA per well
Time to read-out: 4 days of dsRNA, then 4 hours of drug before read-out
Treatment: doxorubicin 0.5 µM for 4 hours to cause double-strand breaks, in cells also given a low, harmless dose of dsRNA against nbs to sensitise the assay
Measurement: 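Mitotic index as the number of phospho-histone H3-positive cells in each well following doxorubicin, given as raw counts without normalisation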
Scale: mitotic cells: higher = more cells in mitosis, weaker G2 arrest
Rule for the call: 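Genes are called active only when high mitotic counts were reproduced with independent dsRNAs and mitosis was checked for delay without damage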
Calls: active = confirmed in follow-up tests; inactive = not confirmed

target gene | DRSC id | mitotic cells, replicate 1 | mitotic cells, replicate 2 | outcome
Rab18 (GeneID 44360) | DRSC18702 | 5 | – | inactive
Rab18 (GeneID 44360) | DRSC26667 | 8 | – | inactive
CG14321 (GeneID 42134) | DRSC14800 | – | – | inactive
CG14321 (GeneID 42134) | DRSC26935 | 6 | – | inactive
CG5776 (GeneID 34680) | DRSC02891 | 6 | – | inactive
CG30403 (GeneID 246595) | DRSC03889 | 10 | 8 | inactive
cno (GeneID 40620) | DRSC12054 | 5 | – | inactive
cno (GeneID 40620) | DRSC22980 | 82 | – | inactive
cno (GeneID 40620) | DRSC25770 | 5 | – | inactive
cno (GeneID 40620) | DRSC28027 | 12 | – | inactive
dbf (GeneID 34462) | DRSC02570 | 3 | – | inactive
dbf (GeneID 34462) | DRSC27207 | 6 | – | inactive
porin (GeneID 34500) | DRSC03594 | 6 | – | inactive
porin (GeneID 34500) | DRSC27826 | 9 | – | inactive
Cpr66D (GeneID 38990) | DRSC23178 | 4 | – | inactive
Cpr66D (GeneID 38990) | DRSC25925 | 7 | – | inactive
wbl (GeneID 37206) | DRSC07718 | 4 | – | inactive
wbl (GeneID 37206) | DRSC26561 | 8 | – | inactive
nrm (GeneID 40515) | DRSC11599 | 16 | – | inactive
nrm (GeneID 40515) | DRSC11897 | 11 | – | inactive
CG13373 (GeneID 30988) | DRSC27059 | 5 | – | inactive
Zyx (GeneID 317824) | DRSC17186 | 6 | – | inactive
CG15073 (GeneID 37155) | DRSC06506 | 1 | – | inactive
CG15073 (GeneID 37155) | DRSC27105 | 8 | – | inactive
CG14104 (GeneID 50259) | DRSC10106 | 7 | – | inactive
Ctf4 (GeneID 36551) | DRSC06380 | 7 | – | inactive
CG34277 + CG31542 | DRSC21544 | 12 | – | inactive
CG34277 + CG31542 | DRSC25567 | 3 | – | inactive
Prosalpha6T (GeneID 34726) | DRSC02873 | 3 | – | inactive
CG9497 (GeneID 33884) | DRSC03234 | 3 | – | inactive
CG9497 (GeneID 33884) | DRSC25510 | 10 | – | inactive
CG42306 + Gint3 | DRSC06934 | 7 | – | inactive
CG42306 + Gint3 | DRSC29885 | 8 | – | inactive
CG17380 (GeneID 42766) | DRSC15230 | 7 | – | inactive
Vps26 (GeneID 31144) | DRSC18555 | 1 | – | inactive
Vps26 (GeneID 31144) | DRSC23556 | 6 | – | inactive
CG6066 (GeneID 43267) | DRSC15959 | 5 | – | inactive
CG6066 (GeneID 43267) | DRSC22228 | 9 | – | inactive
CG6066 (GeneID 43267) | DRSC27936 | 1 | – | inactive
CG9672 (GeneID 32651) | DRSC20201 | 9 | – | inactive
CG13850 (GeneID 42630) | DRSC14700 | 6 | – | inactive
CG14567 (GeneID 40420) | DRSC11728 | 10 | – | inactive
Tmtc4 (GeneID 41867) | DRSC15702 | 7 | – | inactive
knon (GeneID 36845) | DRSC07049 | 2 | – | inactive
Rnmt (GeneID 34877) | DRSC03558 | 8 | – | inactive
Lip3 (GeneID 41643) | DRSC16727 | 8 | – | inactive
Lip3 (GeneID 41643) | DRSC29354 | 8 | – | inactive
CG18304 (GeneID 33969) | DRSC02664 | 3 | – | inactive
CG18304 (GeneID 33969) | DRSC28389 | 2 | – | inactive
hrm (GeneID 35499) | DRSC04853 | 7 | – | inactive
CG12241 (GeneID 41834) | DRSC14481 | 7 | – | inactive
CG12241 (GeneID 41834) | DRSC26642 | 8 | – | inactive
Cby (GeneID 42574) | DRSC14591 | 8 | – | inactive
Pkn + Tsen15 | DRSC21969 | 6 | – | inactive
Pkn + Tsen15 | DRSC27376 | 8 | – | inactive
CG5455 (GeneID 43196) | DRSC15805 | 4 | – | inactive
CG5455 (GeneID 43196) | DRSC27389 | 4 | – | inactive
14-3-3zeta (GeneID 36059) | DRSC05028 | 8 | – | inactive
14-3-3zeta (GeneID 36059) | DRSC27525 | 21 | – | inactive
Naus (GeneID 37076) | DRSC06011 | 5 | – | inactive
Naus (GeneID 37076) | DRSC06469 | 6 | – | inactive
Naus (GeneID 37076) | DRSC23606 | 4 | – | inactive
CG32563 (GeneID 32706) | DRSC19934 | 8 | – | inactive
CG32563 (GeneID 32706) | DRSC29716 | 8 | – | inactive
CG14306 (retired record) (GeneID 42231) | DRSC14785 | 12 | – | inactive
CG30485 (GeneID 246644) | DRSC06376 | 12 | – | inactive
LTV1 (GeneID 36146) | DRSC05951 | 5 | – | inactive
Ndc1 (GeneID 42825) | DRSC15895 | 7 | – | inactive
CG32354 (GeneID 50302) | DRSC10763 | 4 | – | inactive
CG32354 (GeneID 50302) | DRSC10775 | 10 | – | inactive
CG32354 (GeneID 50302) | DRSC21919 | 4 | – | inactive
dsb (GeneID 38252) | DRSC08542 | 10 | – | inactive
Syt14 (GeneID 40544) | DRSC12331 | 4 | – | inactive
CG3097 (GeneID 31503) | DRSC18275 | 21 | – | inactive
CG33137 (GeneID 36449) | DRSC22131 | 3 | – | inactive
Marf (GeneID 31581) | DRSC18329 | 2 | – | inactive
Marf (GeneID 31581) | DRSC28101 | 7 | – | inactive
CG5773 (GeneID 37053) | DRSC06955 | 5 | – | inactive
CG5773 (GeneID 37053) | DRSC28940 | 17 | – | inactive
RhoGEF64C (GeneID 38578) | DRSC08318 | 5 | – | inactive
RhoGEF64C (GeneID 38578) | DRSC08319 | 4 | – | inactive
RhoGEF64C (GeneID 38578) | DRSC25939 | 8 | – | inactive
eIF3b (GeneID 36981) | DRSC06900 | 3 | – | inactive
CG6329 (GeneID 36529) | DRSC06976 | 2 | – | inactive
sqa (GeneID 36002) | DRSC06693 | 2 | – | inactive
sqa (GeneID 36002) | DRSC21635 | 5 | – | inactive
CG12862 (GeneID 36625) | DRSC06202 | 14 | – | inactive
CG31680 (GeneID 318881) | DRSC21878 | 9 | – | inactive
CG32820 + CG17450 + CG32819 | DRSC21803 | 10 | – | inactive
CG32820 + CG17450 + CG32819 | DRSC22812 | 9 | – | inactive
CG32820 + CG17450 + CG32819 | DRSC27791 | 1 | – | inactive
qin (GeneID 42236) | DRSC14782 | 8 | – | inactive
C901 (GeneID 32032) | DRSC19351 | 14 | – | inactive
C901 (GeneID 32032) | DRSC28397 | 4 | – | inactive
Pph13 (GeneID 33239) | DRSC23162 | 10 | – | inactive
Pph13 (GeneID 33239) | DRSC29483 | 7 | – | inactive
Ent3 (GeneID 39461) | DRSC09822 | 7 | – | inactive
Ent3 (GeneID 39461) | DRSC29706 | 6 | – | inactive
Ubx (GeneID 42034) | DRSC16891 | 7 | – | inactive
Ubx (GeneID 42034) | DRSC23812 | 7 | – | inactive
Ubx (GeneID 42034) | DRSC37677 | 9 | – | inactive
CG14883 (GeneID 41997) | DRSC15007 | 5 | – | inactive
CG30053 (GeneID 246419) | DRSC07260 | 5 | – | inactive
Cpr23B (GeneID 33480) | DRSC23504 | 3 | – | inactive
CG14829 (GeneID 38792) | DRSC10199 | 6 | – | inactive
Pgd (GeneID 31185) | DRSC18697 | 17 | – | inactive
Pgd (GeneID 31185) | DRSC39148 | 14 | – | inactive
Pldn (GeneID 39315) | DRSC10137 | 12 | – | inactive
Pldn (GeneID 39315) | DRSC28270 | 4 | – | inactive
CG33465 (GeneID 3885587) | DRSC05587 | 2 | – | inactive

17 of these entries, reformatted:
CG12241 (GeneID 41834) [DRSC26642] → mitotic cells, replicate 1 = 8; outcome = inactive
Cby (GeneID 42574) [DRSC14591] → mitotic cells, replicate 1 = 8; outcome = inactive
Pkn + Tsen15 [DRSC21969] → mitotic cells, replicate 1 = 6; outcome = inactive
Pkn + Tsen15 [DRSC27376] → mitotic cells, replicate 1 = 8; outcome = inactive
CG5455 (GeneID 43196) [DRSC15805] → mitotic cells, replicate 1 = 4; outcome = inactive
CG5455 (GeneID 43196) [DRSC27389] → mitotic cells, replicate 1 = 4; outcome = inactive
14-3-3zeta (GeneID 36059) [DRSC05028] → mitotic cells, replicate 1 = 8; outcome = inactive
14-3-3zeta (GeneID 36059) [DRSC27525] → mitotic cells, replicate 1 = 21; outcome = inactive
Naus (GeneID 37076) [DRSC06011] → mitotic cells, replicate 1 = 5; outcome = inactive
Naus (GeneID 37076) [DRSC06469] → mitotic cells, replicate 1 = 6; outcome = inactive
Naus (GeneID 37076) [DRSC23606] → mitotic cells, replicate 1 = 4; outcome = inactive
CG32563 (GeneID 32706) [DRSC19934] → mitotic cells, replicate 1 = 8; outcome = inactive
CG32563 (GeneID 32706) [DRSC29716] → mitotic cells, replicate 1 = 8; outcome = inactive
CG14306 (retired record) (GeneID 42231) [DRSC14785] → mitotic cells, replicate 1 = 12; outcome = inactive
CG30485 (GeneID 246644) [DRSC06376] → mitotic cells, replicate 1 = 12; outcome = inactive
LTV1 (GeneID 36146) [DRSC05951] → mitotic cells, replicate 1 = 5; outcome = inactive
Ndc1 (GeneID 42825) [DRSC15895] → mitotic cells, replicate 1 = 7; outcome = inactive
